Measurements published in publication PMC12825198.
No constants are given. Whether binding was seen depends on the method and setting. Binding seen in cells or lysates may run through a third protein. Here binding means that the protein was enriched with, or labelled near, the bait; the list need not be complete.

By UniProt entry, the sequences of proteins in these tests, tags left out. Where a name states a change or a piece, a line headed by the entry shows the natural chain unless it says otherwise.
UniProt P05556: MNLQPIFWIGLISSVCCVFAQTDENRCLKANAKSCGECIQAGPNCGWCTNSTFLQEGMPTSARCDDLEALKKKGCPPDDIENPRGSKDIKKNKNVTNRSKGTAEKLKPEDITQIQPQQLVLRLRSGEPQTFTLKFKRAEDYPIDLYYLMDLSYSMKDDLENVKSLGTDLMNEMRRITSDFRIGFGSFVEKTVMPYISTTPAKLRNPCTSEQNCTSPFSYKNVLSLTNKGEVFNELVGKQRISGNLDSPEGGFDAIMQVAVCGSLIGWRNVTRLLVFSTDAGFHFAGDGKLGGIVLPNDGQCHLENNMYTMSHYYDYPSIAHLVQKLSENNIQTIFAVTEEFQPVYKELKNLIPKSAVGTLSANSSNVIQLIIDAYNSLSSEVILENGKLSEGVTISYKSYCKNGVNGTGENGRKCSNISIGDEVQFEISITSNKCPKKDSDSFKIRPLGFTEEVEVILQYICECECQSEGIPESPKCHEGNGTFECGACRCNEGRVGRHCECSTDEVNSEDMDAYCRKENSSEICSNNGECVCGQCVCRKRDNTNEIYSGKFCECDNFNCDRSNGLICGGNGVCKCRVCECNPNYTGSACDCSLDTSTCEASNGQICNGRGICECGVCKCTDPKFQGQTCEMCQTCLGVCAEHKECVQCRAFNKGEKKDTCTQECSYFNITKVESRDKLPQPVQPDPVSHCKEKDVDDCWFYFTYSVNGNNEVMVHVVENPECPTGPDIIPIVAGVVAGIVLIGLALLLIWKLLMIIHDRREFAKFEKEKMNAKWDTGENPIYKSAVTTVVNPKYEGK

Target: T1, peroxidasin (PXDN) (human (endogenous in HK1)) (UniProt Q92626)
T1 sequence: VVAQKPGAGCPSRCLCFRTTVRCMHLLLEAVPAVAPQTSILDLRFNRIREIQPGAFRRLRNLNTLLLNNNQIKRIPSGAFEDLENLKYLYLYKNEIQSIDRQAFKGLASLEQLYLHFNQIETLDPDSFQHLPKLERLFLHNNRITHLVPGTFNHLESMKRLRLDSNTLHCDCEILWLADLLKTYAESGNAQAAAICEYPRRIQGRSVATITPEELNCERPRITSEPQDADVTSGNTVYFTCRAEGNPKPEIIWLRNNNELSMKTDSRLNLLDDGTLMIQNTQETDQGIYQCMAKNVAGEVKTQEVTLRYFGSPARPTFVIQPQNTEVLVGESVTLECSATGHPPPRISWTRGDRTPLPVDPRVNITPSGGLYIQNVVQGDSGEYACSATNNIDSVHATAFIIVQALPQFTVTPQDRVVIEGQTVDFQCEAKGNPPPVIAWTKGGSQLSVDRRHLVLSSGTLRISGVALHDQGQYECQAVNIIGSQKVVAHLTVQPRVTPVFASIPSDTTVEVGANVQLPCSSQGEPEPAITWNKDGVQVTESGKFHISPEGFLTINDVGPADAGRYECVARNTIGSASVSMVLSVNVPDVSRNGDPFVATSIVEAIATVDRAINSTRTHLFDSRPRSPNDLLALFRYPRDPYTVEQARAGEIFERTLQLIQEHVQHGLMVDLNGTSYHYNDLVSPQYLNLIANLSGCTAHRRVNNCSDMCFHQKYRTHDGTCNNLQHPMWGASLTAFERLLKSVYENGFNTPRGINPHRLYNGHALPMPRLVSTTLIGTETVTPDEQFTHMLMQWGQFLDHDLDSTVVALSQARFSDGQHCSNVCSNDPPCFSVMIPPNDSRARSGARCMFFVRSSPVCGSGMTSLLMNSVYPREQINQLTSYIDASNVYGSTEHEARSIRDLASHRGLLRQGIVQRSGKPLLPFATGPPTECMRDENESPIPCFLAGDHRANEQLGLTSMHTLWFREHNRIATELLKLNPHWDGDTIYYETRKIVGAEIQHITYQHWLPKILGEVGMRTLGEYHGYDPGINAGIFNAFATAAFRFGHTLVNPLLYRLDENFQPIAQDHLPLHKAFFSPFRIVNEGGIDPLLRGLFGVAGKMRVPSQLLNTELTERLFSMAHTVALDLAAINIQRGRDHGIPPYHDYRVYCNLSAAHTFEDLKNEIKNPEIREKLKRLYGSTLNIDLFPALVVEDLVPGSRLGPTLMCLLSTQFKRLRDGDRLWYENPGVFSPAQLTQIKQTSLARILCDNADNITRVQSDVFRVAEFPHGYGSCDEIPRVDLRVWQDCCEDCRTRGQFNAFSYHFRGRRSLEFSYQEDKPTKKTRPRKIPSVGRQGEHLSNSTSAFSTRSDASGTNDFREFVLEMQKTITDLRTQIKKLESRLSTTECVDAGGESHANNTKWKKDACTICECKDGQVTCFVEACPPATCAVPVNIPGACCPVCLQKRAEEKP
Assay: affinity purification with mass spectrometry; Co-IP of PXDN in HK1 cells (versus IgG) followed by mass spectrometry; hits intersected with genes correlated with PXDN expression in four cohorts

binding: binds
Substance: ITGB1 (from UniProt P05556 21-798) (receptor)
